SMILES strings stand for the structures. The list shows only some results of the screen, not a fair sample: it gathers tests that were run many times, whatever their T/C, doses with no T/C, and many T/C values between a quarter and a half above the control. Other doses and runs of a compound stand elsewhere. T/C gives the treated animals as a percentage of the vehicle group. Some doses have a count of surviving animals in place of a T/C: the source files T/C as zero there, which appears to mark a toxic dose or a test without result, not a measured value. Some doses without a T/C left all or most animals alive at the check, yet need not have been tolerated: survival well below the control is almost never listed, so the zero probably covers shortened survival too. Survivors were counted at the toxicity check, usually on the fifth day, unless a day is given; later deaths do not show. Schedules are NCI's codes, read here as Q, the interval in days (D) or hours (H), X, the number of doses. Some entries hold several experiments; the results are listed from low to high. For survival time, this PubChem deposit counts one and a half times the control or more as active, and values a quarter to a half above the control carry no call in these data; other NCI protocols may use other cut-offs. Counts like (3×) stand for listed records that agree. Some T/C values carry the count of animals alive at the toxicity check (mostly the fifth day); without a count, all were alive then.

In this assay the test system is CD2F1 mice, L1210 leukemia ip, survival T/C. Description: NCI In Vivo Anticancer Drug Screen. Data for tumor model L1210 Leukemia (intraperitoneal) in CD2F1 (CDF1) mice. As to conditions: higher T/C = longer survival. The essentials:
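Implant tumor; dose compound or vehicle; measure endpoint in both groups; report treated divided by control.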

Setting [1] is: T/C endpoint: mean survival time, dose: 4.0 mg/kg/injection, schedule: Q01DX001 (ip), vehicle: saline.

`C=[CH][Pb]([CH]=C)([O]C(=O)C(C)C)[O]C(=O)C(C)C`: for the setting “T/C endpoint: mean survival time, dose: 20.0 mg/kg/injection, schedule: Q01DX009 (ip), vehicle: saline with Tween-80”, the survivor count is 2 of 6.

For the compound `CCN1CC2c3cc(OC)c(OC)cc3CC(c3ccccc3)C2C1` (stereo unspecified), the survivor count reads like this: (T/C endpoint: mean survival time, dose: 100.0 mg/kg/injection, schedule: Q04DX003 (ip), vehicle: saline with Tween-80) 3 of 6; (T/C endpoint: mean survival time, dose: 200.0 mg/kg/injection, schedule: Q04DX003 (ip), vehicle: saline with Tween-80) 0 of 6; (T/C endpoint: mean survival time, dose: 400.0 mg/kg/injection, schedule: Q04DX003 (ip), vehicle: saline with Tween-80) 0 of 6.

As to `Clc1ccc2nnnn2n1`, the survivor count runs as follows: (T/C endpoint: mean survival time, dose: 200.0 mg/kg/injection, schedule: Q01DX009 (ip), vehicle: saline with Tween-80) 3 of 6; (T/C endpoint: mean survival time, dose: 400.0 mg/kg/injection, schedule: Q01DX009 (ip), vehicle: saline with Tween-80) 0 of 6 and 2 of 6; (T/C endpoint: median survival time, dose: 400.0 mg/kg/injection, schedule: Q01DX009 (ip), vehicle: saline with Tween-80) 1 of 6 and 3 of 6.

Take `CC[C@]1(O)C[C@H]2CN(CCc3c([nH]c4ccccc34)[C@@](C(=O)OC)(c3cc4c(cc3OC)N(C=O)[C@H]3[C@@](O)(C(=O)OC)[C@H](OC(C)=O)[C@]5(CC)C=CCN6CC[C@]43[C@@H]65)C2)C1`: the T/C reads like this: (T/C endpoint: mean survival time, dose: 0.03 mg/kg/injection, schedule: Q01DX005 (ip), vehicle: saline, evaluated on day 5) 103, 114, 120 % of control; (T/C endpoint: mean survival time, dose: 0.03 mg/kg/injection, schedule: Q01DX005 (ip), vehicle: saline, evaluated on day 30) 114 and 119 % of control; (T/C endpoint: mean survival time, dose: 0.03 mg/kg/injection, schedule: Q01DX005 (ip), vehicle: saline, evaluated on day 60) 103 % of control; (T/C endpoint: mean survival time, dose: 0.06 mg/kg/injection, schedule: Q01DX005 (ip), vehicle: saline, evaluated on day 5) 116, 117, 122 % of control; (T/C endpoint: mean survival time, dose: 0.06 mg/kg/injection, schedule: Q01DX005 (ip), vehicle: saline, evaluated on day 30) 116 and 120 % of control; (T/C endpoint: mean survival time, dose: 0.06 mg/kg/injection, schedule: Q01DX005 (ip), vehicle: saline, evaluated on day 60) 117 % of control. The T/C is, setting by setting: (T/C endpoint: mean survival time, dose: 0.12 mg/kg/injection, schedule: Q01DX005 (ip), vehicle: saline, evaluated on day 5) 122 and 124 % of control; (T/C endpoint: mean survival time, dose: 0.12 mg/kg/injection, schedule: Q01DX005 (ip), vehicle: saline, evaluated on day 30) 120 and 124 % of control; (T/C endpoint: mean survival time, dose: 0.13 mg/kg/injection, schedule: Q01DX005 (ip), vehicle: saline, evaluated on day 5) 126 % of control; (T/C endpoint: mean survival time, dose: 0.13 mg/kg/injection, schedule: Q01DX005 (ip), vehicle: saline, evaluated on day 60) 126 % of control; (T/C endpoint: mean survival time, dose: 0.13 mg/kg/injection, schedule: Q04DX003 (ip), vehicle: saline) 104, 105 (2×), 112, 114, 115, 117 % of control (2×); (T/C endpoint: mean survival time, dose: 0.22 mg/kg/injection, schedule: Q01DX009 (ip), vehicle: water) 139 % of control. The T/C by setting is: (T/C endpoint: mean survival time, dose: 0.25 mg/kg/injection, schedule: Q01DX005 (ip), vehicle: saline, evaluated on day 5) 117, 136, 142 % of control; (T/C endpoint: mean survival time, dose: 0.25 mg/kg/injection, schedule: Q01DX005 (ip), vehicle: saline, evaluated on day 30) 136 and 140 % of control; (T/C endpoint: mean survival time, dose: 0.25 mg/kg/injection, schedule: Q01DX005 (ip), vehicle: saline, evaluated on day 60) 110 % of control [9 of 10 alive]; (T/C endpoint: mean survival time, dose: 0.25 mg/kg/injection, schedule: Q01DX009 (ip), vehicle: saline) 128 and 134 % of control; (T/C endpoint: mean survival time, dose: 0.25 mg/kg/injection, schedule: Q04DX003 (ip), vehicle: saline) 105, 107, 110, 112, 115, 117, 118, 119 % of control; (T/C endpoint: mean survival time, dose: 0.4 mg/kg/injection, schedule: Q04DX003 (ip), vehicle: saline) 131 % of control. In addition, the T/C runs as follows: (T/C endpoint: mean survival time, dose: 0.5 mg/kg/injection, schedule: Q01DX001 (ip), vehicle: saline) 103, 106 (3×), 111, 114 (2×), 122 % of control; (T/C endpoint: mean survival time, dose: 0.5 mg/kg/injection, schedule: Q01DX009 (ip), vehicle: saline) 128 % of control; (T/C endpoint: mean survival time, dose: 0.5 mg/kg/injection, schedule: Q04DX003 (ip), vehicle: saline, evaluated on day 5) 121 and 127 % of control; (T/C endpoint: mean survival time, dose: 0.5 mg/kg/injection, schedule: Q04DX003 (ip), vehicle: saline, evaluated on day 30) 114, 115, 115 [5 of 6 alive], 118 (2×), 121, 122, 128 % of control; (T/C endpoint: mean survival time, dose: 0.65 mg/kg/injection, schedule: Q04DX003 (ip), vehicle: water) 130 % of control; (T/C endpoint: mean survival time, dose: 0.8 mg/kg/injection, schedule: Q04DX003 (ip), vehicle: saline) 144 % of control. Moreover, the T/C is 105 [5 of 6 alive], 109, 112, 114 (2×), 117, 122, 126 % of control (T/C endpoint: mean survival time, dose: 1.0 mg/kg/injection, schedule: Q01DX001 (ip), vehicle: saline); 127 and 141 % of control (T/C endpoint: mean survival time, dose: 1.0 mg/kg/injection, schedule: Q04DX003 (ip), vehicle: saline, evaluated on day 5); 118, 119, 122, 124 [5 of 6 alive], 132, 134, 137 [5 of 6 alive], 142 % of control (T/C endpoint: mean survival time, dose: 1.0 mg/kg/injection, schedule: Q04DX003 (ip), vehicle: saline, evaluated on day 30); 129 % of control (2×) (T/C endpoint: mean survival time, dose: 1.0 mg/kg/injection, schedule: Q04DX004 (ip), vehicle: saline); 140 % of control (T/C endpoint: mean survival time, dose: 1.08 mg/kg/injection, schedule: Q04DX003 (ip), vehicle: water); 132 and 144 % of control (T/C endpoint: mean survival time, dose: 1.3 mg/kg/injection, schedule: Q04DX003 (ip), vehicle: saline). Moreover, the T/C (T/C endpoint: mean survival time, dose: 1.5 mg/kg/injection, schedule: Q04DX004 (ip), vehicle: saline) was 133 and 141 % of control; the T/C (T/C endpoint: mean survival time, dose: 2.0 mg/kg/injection, schedule: Q01DX001 (ip), vehicle: saline) is 109, 111, 114 (2×), 117 (2×), 122, 129 % of control; the T/C (T/C endpoint: mean survival time, dose: 2.0 mg/kg/injection, schedule: Q04DX003 (ip), vehicle: saline, evaluated on day 5) is 151 % of control; the T/C (T/C endpoint: mean survival time, dose: 2.0 mg/kg/injection, schedule: Q04DX003 (ip), vehicle: saline, evaluated on day 30) was 91, 97, 102 [5 of 6 alive], 119, 130 % of control; the T/C (T/C endpoint: mean survival time, dose: 2.0 mg/kg/injection, schedule: Q04DX003 (ip), vehicle: saline, evaluated on day 45) is 140 and 150 % of control; the T/C under setting [1] was 103, 105 [5 of 6 alive], 112, 118, 121 [5 of 6 alive], 126, 140 % of control. Further, the T/C reads like this: (T/C endpoint: mean survival time, dose: 600.0 micrograms/kg/injection, schedule: Q01DX009 (ip), vehicle: water) 125 % of control; (T/C endpoint: median survival time, dose: 250.0 micrograms/kg/injection, schedule: Q01DX009 (ip), vehicle: water) 132 % of control; (T/C endpoint: median survival time, dose: 500.0 micrograms/kg/injection, schedule: Q01DX009 (ip), vehicle: water) 134 % of control. Further, the survivor count by setting is: (T/C endpoint: mean survival time, dose: 0.6 mg/kg/injection, schedule: Q01DX009 (ip), vehicle: water) 2 of 6; (T/C endpoint: mean survival time, dose: 2.0 mg/kg/injection, schedule: Q04DX003 (ip), vehicle: saline) 3 of 6, 4 of 6, 6 of 6; (T/C endpoint: mean survival time, dose: 3.2 mg/kg/injection, schedule: Q04DX003 (ip), vehicle: saline) 4 of 6; (T/C endpoint: mean survival time, dose: 3.2 mg/kg/injection, schedule: Q04DX003 (ip), vehicle: water) 5 of 6 and 6 of 6; under setting [1], 3 of 6; (T/C endpoint: mean survival time, dose: 8.0 mg/kg/injection, schedule: Q01DX001 (ip), vehicle: saline) 0 of 6, 2 of 6, 3 of 6, 4 of 6, 5 of 6. Also, under “T/C endpoint: mean survival time, dose: 16.0 mg/kg/injection, schedule: Q01DX001 (ip), vehicle: saline”, the survivor count is given as 0 of 6.

On to `O=S(=O)(O)c1cc2cc(S(=O)(=O)O)c(O)cc2cc1O.[NH-]C1CCCCC1[NH-].[Pt+2]`, for which the T/C by setting is: (T/C endpoint: median survival time, dose: 25.0 mg/kg/injection, schedule: Q04DX003 (ip), vehicle: saline) 125 and 131 % of control; (T/C endpoint: median survival time, dose: 50.0 mg/kg/injection, schedule: Q04DX003 (ip), vehicle: saline) 147 % of control.

For the compound `O=C(O)c1cc(=O)cc(C(=O)O)o1`, for the setting “T/C endpoint: mean survival time, dose: 200.0 mg/kg/injection, schedule: Q01DX009 (ip), vehicle: Klucel (hydroxypropylcellulose) (HPC)”, the survivor count is on record as 2 of 3.

The values above are taken from PubChem BioAssay AID256 (DTP/NCI, 2004).
